# According to the supplement of paper PMC9135407:
# Where “and” joins values, the source holds several entries; their conditions need not be identical. Equal values may be shown once. Where a name gives a salt, the structure may show the parent alone. ± gives the standard deviation of the averaged measurements. This is one part of the list. Plates or batches differ in their baseline, so values are only roughly comparable.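 Primary human stellate myofibroblasts activated in culture; inactivation shown by regained lipid droplets. Readout: fraction of Hoechst-counted cells exceeding a per-plate Bodipy threshold, duplicate wells, each plate with DMSO negative and nortriptyline positive controls. Hits: control-normalized score beyond the plate's top-tenth-percentile nortriptyline wells, or among its three best wells. Final well concentrations unstated.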
# Tested on: primary human hepatic stellate cells (donor 1)
# Test: percent Bodipy-positive cells; higher = more lipid droplet accumulation
# Details: 48 h
# [1] = library stock concentration: 10 mM
# [2] = library stock concentration: 3.33 mM
# [3] = library stock concentration: 1 mM
structure (smiles),measurement,setting,value
Br.Br.CN(C)CCCc1cc(C(=O)Nc2ccc(-c3ccncc3)cc2)ccc1O,percent Bodipy-positive cells,[1],97.66 ± 0.37%
CC1(C)O[C@@H]2C[C@H]3[C@@H]4C[C@H](F)C5=CC(=O)C=C[C@]5(C)[C@H]4[C@@H](O)C[C@]3(C)[C@]2(C(=O)CO)O1 [Flunisolide],percent Bodipy-positive cells,,3.47 ± 1%
same,percent Bodipy-positive cells,[1],12 ± 2.1%
CC1(C)O[C@@H]2C[C@H]3[C@@H]4C[C@H](F)C5=CC(=O)C=C[C@]5(C)[C@H]4[C@@H](O)C[C@]3(C)[C@]2(C(=O)CO)O1 [FluniSOLIDe],percent Bodipy-positive cells,[1],79.2 ± 1.6%
CN(C)CCCCC(=O)Nc1ccc(NC(=S)NC(=O)c2ccc(C(C)(C)C)cc2)cc1 [Tenovin-6],percent Bodipy-positive cells,[2],98.4 ± 1.5%
Cn1cnc2c(F)c(Nc3ccc(Br)cc3Cl)c(C(=O)NOCCO)cc21,percent Bodipy-positive cells,library stock concentration: 80 uM,12.2 ± 8.1%
same,percent Bodipy-positive cells,library stock concentration: 400 uM,11.4% and 12.6%
same,percent Bodipy-positive cells,library stock concentration: 2 mM,6.82% and 19.3%
Cn1cnc2c(F)c(Nc3ccc(Br)cc3Cl)c(C(=O)NOCCO)cc21 [Selumetinib (AZD6244)],percent Bodipy-positive cells,[2],8.12 ± 6.6%
same,percent Bodipy-positive cells,[1],16.7 ± 10%
Nc1nc(N)c2nc(-c3cccc(O)c3)c(-c3cccc(O)c3)nc2n1,percent Bodipy-positive cells,[2],7.07 ± 3.9%
same,percent Bodipy-positive cells,[1],13.2 ± 1.1%
CCCCCCCCCCCCCCCC(=O)N[C@H](CN1CCOCC1)[C@H](O)c1ccccc1 (racemic),percent Bodipy-positive cells,[3],8.13 ± 3.6%
NC(=O)c1ccccc1 [Benzamide],percent Bodipy-positive cells,[1],38.7 ± 10%
CC(C)=CCC/C(C)=C/CC/C(C)=C/CC[C@]1(C)CCc2cc(O)cc(C)c2O1 [.delta.-Tocotrienol],percent Bodipy-positive cells,[3],9.74 ± 5.2%
NC(N)=NC(N)=Nc1ccccc1 [1-Phenylbiguanide],percent Bodipy-positive cells,[1],18.1 ± 5%
CC(C)=CCCC(C)(OC1OC(COC2OCC(O)C(O)C2O)C(O)C(O)C1O)C1CCC2(C)C1C(O)CC1C3(C)CCC(OC4OC(CO)C(O)C(O)C4O)C(C)(C)C3CCC12C (configuration not stated) [Gynostemma Extract],percent Bodipy-positive cells,[2],5.73 ± 1.2%
same,percent Bodipy-positive cells,[1],18.3 ± 3.4%
Nc1ncnc2c1c(-c1cccc(OCc3ccccc3)c1)cn2[C@H]1C[C@@H](CN2CCC2)C1,percent Bodipy-positive cells,[2],80.4 ± 13%
same,percent Bodipy-positive cells,[1],96.5 ± 1.2%
NCCc1ccc(O)c(O)c1 [Dopamine HCl],percent Bodipy-positive cells,[2],4.89 ± 1.1%
same,percent Bodipy-positive cells,[1],9.16 ± 1%
NCCc1ccc(O)c(O)c1 [Intropin],percent Bodipy-positive cells,[1],29.6 ± 0.4%
C[C@H](Cc1ccc(O)c(O)c1)[C@@H](C)Cc1ccc(O)c(O)c1,percent Bodipy-positive cells,[1],43.4 ± 5.2%
CCCCCC(O)CCCC(=O)O (configuration not stated) [5-hydroxydecanoic acid sodium],percent Bodipy-positive cells,[1],36.07 ± 0.29%
CCCNC(=O)[C@H]1O[C@@H]1C(=O)N[C@H](C(=O)N1CCC[C@H]1C(=O)OC)C(C)CC (some centres not stated),percent Bodipy-positive cells,library stock concentration: 12.6 mM,82.1 ± 0.46%
OC[C@@H](O)CN1CCN(c2ccccc2)CC1 [Levodropropizine],percent Bodipy-positive cells,[2],9.09 ± 0.35%
same,percent Bodipy-positive cells,[1],38.9 ± 22%
N#CC1(c2ccc(NC(=O)c3cccnc3NCc3ccncc3)cc2)CCCC1 [Apatinib],percent Bodipy-positive cells,[2],9.41 ± 0.89%
same,percent Bodipy-positive cells,[1],53.2 ± 5.7%
CCCNC(=O)N1N=C(c2ccc(N)cc2)c2cc3c(cc2C1C)OCO3 (configuration not stated),percent Bodipy-positive cells,[1],6.8 ± 4%
COc1cc(N)c(Cl)cc1C(=O)OCCN1CCCCC1,percent Bodipy-positive cells,[1],42.7 ± 4.7%
Cc1c(Nc2ncccc2C(=O)O)cccc1C(F)(F)F [Flunixin meglumine],percent Bodipy-positive cells,,6.35 ± 1.8%
Cc1c(Nc2ncccc2C(=O)O)cccc1C(F)(F)F [Flunixin Meglumin],percent Bodipy-positive cells,[2],7.18 ± 1.2%
same,percent Bodipy-positive cells,[1],13.7 ± 1.1%
CC[C@H](c1ccc(O)cc1)[C@@H](CC)c1ccc(O)cc1 [Hexestrol],percent Bodipy-positive cells,,8.96 ± 3.5%
same,percent Bodipy-positive cells,[2],11.3 ± 2.3%
O=C(Cc1ccccc1)NO [Phenylacetohydroxamic acid],percent Bodipy-positive cells,[1],30.3 ± 6.9%
COc1cc(Nc2ncc(F)c(Nc3ccc4c(n3)NC(=O)C(C)(C)O4)n2)cc(OC)c1OC,percent Bodipy-positive cells,[1],94 ± 3.1%
CC1O[C@H](O[C@]2(O[C@H]3CC[C@@]4(C)C(=CC[C@H]5[C@@H]6C[C@H]7[C@H]([C@H](C)[C@H]8CC[C@H](C)CN87)[C@@]6(C)CC[C@@H]54)C3)C[C@@H](O[C@@H]3OC(CO)[C@@H](O)[C@@H](O)C3O)[C@@H](O)C(CO)O2)C(O)[C@@H](O)[C@H]1O (stereo partly drawn) [Solanine alpha],percent Bodipy-positive cells,,29.7 ± 1.4%
COc1ccc(CNc2nc(N3CCC[C@H]3CO)ncc2C(=O)NCc2ncccn2)cc1Cl [Avanafil],percent Bodipy-positive cells,[2],10.5 ± 1.2%
same,percent Bodipy-positive cells,[1],44.7 ± 4.1%
Nc1ncnc2c1ncn2C1CCCC1 [9-cyclopentyladenine],percent Bodipy-positive cells,[1],48.7 ± 1.7%
CCOC(=O)C1=C(C)NC(C)=C(C(=O)OC)C1c1cccc(Cl)c1Cl (configuration not stated) [Felodipine],percent Bodipy-positive cells,[1],94.1 ± 1.6%
C[C@]12CCC(=O)C=C1CC[C@@H]1[C@@H]2[C@@H](O)C[C@@]2(C)[C@H]1CC[C@]2(O)C(=O)COP(=O)(O)O [Hydrocortisone phosphate triethylamine],percent Bodipy-positive cells,library stock concentration: 3.1 mM,2.71 ± 0.11%
O=C1NC(c2cccc([N+](=O)[O-])c2)=CCN1c1ccccc1O [Icilin],percent Bodipy-positive cells,[3],13 ± 1.2%
CC(=O)OCC(=O)[C@@]1(O)CC[C@H]2[C@@H]3CCC4=CC(=O)C=C[C@]4(C)[C@H]3[C@@H](O)C[C@@]21C [Prednisolone acetate],percent Bodipy-positive cells,library stock concentration: 5 mM,9.36 ± 0.76%
same,percent Bodipy-positive cells,[1],16.7 ± 0.49%
CC(=O)OCC(=O)[C@@]1(O)CC[C@H]2[C@@H]3CCC4=CC(=O)C=C[C@]4(C)[C@H]3[C@@H](O)C[C@@]21C,percent Bodipy-positive cells,[1],27.2 ± 8.2%
COc1cc(C(=O)OCCCN2CCCN(CCCOC(=O)c3cc(OC)c(OC)c(OC)c3)CC2)cc(OC)c1OC.Cl.Cl,percent Bodipy-positive cells,[1],93.29 ± 0.21%
CC[C@]1(O)C[C@H]2CN(CCc3c([nH]c4ccccc34)[C@@](C(=O)OC)(c3cc4c(cc3OC)N(C=O)[C@H]3[C@@](O)(C(=O)OC)[C@H](OC(C)=O)[C@]5(CC)C=CCN6CC[C@]43[C@@H]65)C2)C1.O=S(=O)(O)O [Vincristine sulfate],percent Bodipy-positive cells,[1],84.32 ± 0.32%
CN1CCN(C(=O)c2cc3cc(Cl)ccc3[nH]2)CC1,percent Bodipy-positive cells,[2],18.7 ± 1.3%
same,percent Bodipy-positive cells,[1],63.1 ± 14%
COc1ccc(Cl)cc1NC(=O)Nc1cc(C)nc2ccccc12,percent Bodipy-positive cells,[1],98.85 ± 0.83%
"COc1cc(SC)ccc1C(=O)N1CCC(Cc2ccccc2)CC1 [p38 MAP Kinase Inhibitor VI, JX401]",percent Bodipy-positive cells,[2],26.2 ± 6.8%
CC#C[C@]1(O)CC[C@H]2[C@@H]3CCC4=CC(=O)CCC4=C3[C@@H](c3ccc(N(C)C)cc3)C[C@@]21C [Mifepristone],percent Bodipy-positive cells,,20.7 ± 4.1%
same,percent Bodipy-positive cells,[3],5.33 ± 1.1%
same,percent Bodipy-positive cells,[2],7.69 ± 0.82%
same,percent Bodipy-positive cells,library stock concentration: 4.7 mM,9.77 ± 5.4%
CC#C[C@]1(O)CC[C@H]2[C@@H]3CCC4=CC(=O)CCC4=C3[C@@H](c3ccc(N(C)C)cc3)C[C@@]21C,percent Bodipy-positive cells,[1],8.81 ± 1.5%
CCc1cccc(CC)c1NC(=O)N1Cc2[nH]nc(NC(=O)c3ccc(N4CCN(C)CC4)cc3)c2C1,percent Bodipy-positive cells,[2],30 ± 3.2%
same,percent Bodipy-positive cells,[1],73.5 ± 5.6%

# Given tab-delimited: part of the list above
structure (smiles)	measurement	setting	value
CC1(C)O[C@@H]2C[C@H]3[C@@H]4C[C@H](F)C5=CC(=O)C=C[C@]5(C)[C@H]4[C@@H](O)C[C@]3(C)[C@]2(C(=O)CO)O1 [Flunisolide]	percent Bodipy-positive cells		3.47 ± 1%
same	percent Bodipy-positive cells	[1]	12 ± 2.1%
